{"sequences": {"note": "The chains behind the UniProt entries cited, without tags or fusion partners. Where a name states a change or a piece, a line headed by the entry shows the natural chain unless it says otherwise.", "UniProt P55212": "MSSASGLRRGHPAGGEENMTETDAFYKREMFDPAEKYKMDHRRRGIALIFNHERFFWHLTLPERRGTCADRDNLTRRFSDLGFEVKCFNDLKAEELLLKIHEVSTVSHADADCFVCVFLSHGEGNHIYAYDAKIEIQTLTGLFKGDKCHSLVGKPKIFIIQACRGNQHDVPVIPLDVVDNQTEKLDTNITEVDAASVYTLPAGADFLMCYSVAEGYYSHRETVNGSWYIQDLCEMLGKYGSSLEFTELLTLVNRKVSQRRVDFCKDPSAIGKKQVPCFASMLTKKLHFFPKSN", "UniProt P55210": "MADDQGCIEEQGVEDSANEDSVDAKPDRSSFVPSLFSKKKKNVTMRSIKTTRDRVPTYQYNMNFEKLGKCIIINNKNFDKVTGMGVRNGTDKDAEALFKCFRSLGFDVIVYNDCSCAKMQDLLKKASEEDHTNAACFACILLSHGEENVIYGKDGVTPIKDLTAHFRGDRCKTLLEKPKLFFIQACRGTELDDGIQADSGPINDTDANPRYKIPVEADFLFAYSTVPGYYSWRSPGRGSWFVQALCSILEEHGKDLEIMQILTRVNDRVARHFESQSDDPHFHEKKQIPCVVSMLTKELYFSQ", "UniProt P98170": "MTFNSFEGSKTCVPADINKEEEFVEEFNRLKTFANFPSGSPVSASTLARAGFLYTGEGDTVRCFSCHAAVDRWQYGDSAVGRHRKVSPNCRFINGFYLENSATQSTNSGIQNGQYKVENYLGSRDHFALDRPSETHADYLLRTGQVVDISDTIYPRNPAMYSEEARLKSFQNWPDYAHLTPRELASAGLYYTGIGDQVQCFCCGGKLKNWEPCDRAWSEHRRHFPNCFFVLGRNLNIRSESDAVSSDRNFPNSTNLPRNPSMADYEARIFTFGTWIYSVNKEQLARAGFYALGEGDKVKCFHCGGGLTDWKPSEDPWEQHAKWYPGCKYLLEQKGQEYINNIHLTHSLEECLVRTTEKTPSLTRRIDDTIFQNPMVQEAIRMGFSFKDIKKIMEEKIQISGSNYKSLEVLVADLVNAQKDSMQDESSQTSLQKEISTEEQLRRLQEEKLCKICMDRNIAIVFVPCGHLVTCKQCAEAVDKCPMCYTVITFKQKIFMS"}, "source": "patent EP0983376B1", "about": "“SCREENING ASSAYS FOR AGENTS THAT ALTER INHIBITOR OF APOPTOSIS (IAP) PROTEIN REGULATION OF CASPASE ACTIVITY” (The Burnham Institute, priority 1997, dated 1998)", "molecules": {"B1": {"name": "GST-c-IAP-1(BIR) (other, human, UniProt Q13490 1-350, looked up)", "chain": "MHKTASQRLFPGPSYQNIKSIMEDSTILSDWTNSNKQKMKYDFSCELYRMSTYSTFPAGVPVSERSLARAGFYYTGVNDKVKCFCCGLMLDNWKLGDSPIQKHKQLYPSCSFIQNLVSASLGSTSKNTSPMRNSFAHSLSPTLEHSSLFSGSYSSLSPNPLNSRAVEDISSSRTNPYSYAMSTEEARFLTYHMWPLTFLSPSELARAGFYYIGPGDRVACFACGGKLSNWEPKDDAMSEHRRHFPNCPFLENSLETLRFSISNLSMQTHAARMRTFMYWPSSVPVQPEQLASAGFYYVGRNDDVKCFCCDGGLRCWESGDDPWVEHAKWFPRCEFLIRMKGQEFVDEIQG", "notes": "range 1-350; not shown: glutathione S-transferase encoded by vector pGEX4T; vector linker not described"}, "B2": {"name": "GST-c-IAP-2(BIR) (other, human, UniProt Q13489 1-335, looked up)", "chain": "MNIVENSIFLSNLMKSANTFELKYDLSCELYRMSTYSTFPAGVPVSERSLARAGFYYTGVNDKVKCFCCGLMLDNWKRGDSPTEKHKKLYPSCRFVQSLNSVNNLEATSQPTFPSSVTNSTHSLLPGTENSGYFRGSYSNSPSNPVNSRANQDFSALMRSSYHCAMNNENARLLTFQTWPLTFLSPTDLAKAGFYYIGPGDRVACFACGGKLSNWEPKDNAMSEHLRHFPKCPFIENQLQDTSRYTVSNLSMQTHAARFKTFFNWPSSVLVNPEQLASAGFYYVGNSDDVKCFCCDGGLRCWESGDDPWVQHAKWFPRCEYLIRIKGQEFIRQVQ", "notes": "range 1-335; not shown: glutathione S-transferase encoded by vector pGEX4T; vector linker not described"}, "B3": {"name": "GST-CD40 cytosolic domain (other, UniProt P25942 216-277, looked up)", "chain": "KKVAKKPTNKAPHPKQEPQEINFPDDLPGSNTAAPVQETLHGCQPVTQEDGKESRISVQERQ", "notes": "domain: cytosolic domain; Control protein; not shown: glutathione S-transferase"}}, "key": {"[1]": {"target": "purified recombinant caspase-6 (His6-tagged) (UniProt P55212)", "experiment": "condition: 3 µg GST-XIAP on beads; 0.5 µg purified caspase; GST pull-down on glutathione-SEPHAROSE, immunoblot"}, "[2]": {"target": "purified recombinant active caspase-7 (His6-tagged) (UniProt P55210)", "experiment": "glutathione-SEPHAROSE affinity chromatography"}, "[3]": {"target": "purified recombinant active caspase-7 (His6-tagged) (UniProt P55210)", "experiment": "opening sentence of Example IV"}, "[4]": {"target": "purified recombinant active caspase-7 (His6-tagged) (UniProt P55210)", "experiment": "condition: 6 µg GST-CD40 on beads; 0.5 µg purified caspase; GST pull-down on glutathione-SEPHAROSE, immunoblot"}, "[5]": {"target": "purified recombinant caspase-6 (His6-tagged) (UniProt P55212)", "experiment": "condition: 6 µg GST-CD40 on beads; 0.5 µg purified caspase; GST pull-down on glutathione-SEPHAROSE, immunoblot"}}, "note": "These are yes or no findings as the source states them, for the method shown. For some of these results: Binding can be weak; no strength is given."}
{"molecule": "GST-XIAP fusion protein (X chromosome linked inhibitor of apoptosis, full length) (from UniProt P98170 1-497)", "values": [{"measurement": "binding", "setting": "[1]", "result": "no binding"}]}
{"molecule": "GST-c-IAP-2 (from UniProt Q13489 1-604)", "values": [{"measurement": "binding", "setting": "[2]", "result": "binds"}, {"measurement": "binding", "setting": "[3]", "result": "binds"}]}
{"molecule": "B1", "values": [{"measurement": "binding", "setting": "[2]", "result": "binds"}]}
{"molecule": "B2", "values": [{"measurement": "binding", "setting": "[2]", "result": "binds"}]}
{"molecule": "B3", "values": [{"measurement": "binding", "setting": "[4]", "result": "no binding"}, {"measurement": "binding", "setting": "[5]", "result": "no binding"}]}
